Source: the supplement of paper PMC8256030
Where “and” joins values, the source holds several entries; their conditions need not be identical. Identical values can stand only once. Counter-ions that a name gives are not always drawn. Some of the results follow. Single values are uncertain here, since repeats match poorly.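 HEK293T cells were given each compound shortly before transfection with a reporter in which red mCherry is followed by the SARS-CoV-2 frameshift element and then GFP in the −1 frame, so GFP appears only after frameshifting.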

The molecules below were run on HEK293T (assay: percent viability (nuclei count) relative to control; higher = more viable cells). Conditions: 10 µM; 24 h.
`Nc1nc2[nH]cnc2c(=S)[nH]1` was tested, and the percent viability was 21.5%.
For `CC1=C(C(=O)O)N2C(=O)[C@@H](NC(=O)[C@H](N)C3=CCC=CC3)[C@H]2SC1`, the percent viability was 185%.
Work on `CC[N+](C)(CC)CCOC(=O)C(O)(c1ccccc1)C1CCCCC1` (configuration not stated) [oxyphenonium bromide] yielded a percent viability of 149%.
In the case of `Cc1cn([C@H]2C[C@H](F)[C@@H](CO)O2)c(=O)[nH]c1=O` [alovudine], the percent viability is reported as 362%.
For `NC12CC3CC(CC(C3)C1)C2` [Amantadine·HCl], the percent viability was 175%.
With `CC(OCCN1CCCCCC1)(c1ccccc1)c1ccc(Cl)cc1` (configuration not stated) [setastine] the percent viability was 282%.
Work on `Nc1cc(C(Cl)=C(Cl)Cl)c(S(N)(=O)=O)cc1S(N)(=O)=O` [clorsulon] yielded a percent viability of 200%.
`CCCCC(C(=O)O)C(=O)N(Nc1ccccc1)c1ccccc1` (configuration not stated) [bumadizone] was tested, and the percent viability was 224%.
For `COc1ccc2cc1Oc1ccc(cc1)C[C@H]1c3c(cc4c(c3Oc3cc5c(cc3OC)CCN(C)[C@@H]5C2)OCO4)CCN1C`, the percent viability was 13.2%.
With `C=Cc1c(C)c2cc3[nH]c(cc4nc(cc5nc(cc1[nH]2)C(C)=C5CCC(=O)O)C(CCC(=O)O)=C4C)c(C)c3C=C` the percent viability was 71.1%.
`CCc1ccc(CCOc2ccc(CC3SC(=O)NC3=O)cc2)nc1` (configuration not stated) [Pioglitazone] gave a percent viability of 161%.
Molecule `CC(C)[C@H]1CC[C@H](C(=O)N[C@H](Cc2ccccc2)C(=O)O)CC1` has a percent viability of 116%.
`CC(C)c1ccccc1` [Sucralfate] showed a percent viability of 331%.
Work on `O=C1NCN(c2ccccc2)C12CCN(CCCC(c1ccc(F)cc1)c1ccc(F)cc1)CC2` [fluspirilene] yielded a percent viability of 187%.
In the case of `O=c1ccn([C@@H]2O[C@H](COP(=O)(O)OP(=O)(O)OP(=O)(O)OP(=O)(O)OC[C@H]3O[C@@H](n4ccc(=O)[nH]c4=O)[C@H](O)[C@@H]3O)[C@@H](O)[C@H]2O)c(=O)[nH]1` [diquafosol], the percent viability is reported as 240%.
With `CC(=O)Oc1cc(C(C)C)c(OCCN(C)C)cc1C` [moxisylyte] the percent viability was 233%.
`CC(=O)N(C)C1(c2ccccc2)CCN(CCC[C@]2(c3ccc(Cl)c(Cl)c3)CCCN(C(=O)c3ccccc3)C2)CC1` [osanetant] was tested, and the percent viability was 239%.
Work on `CC1(c2ccccc2)OC(C(=O)O)=CC1=O` (configuration not stated) [acifran] yielded a percent viability of 117%.
Molecule `C=C(C)[C@@H]1CC[C@]2(C(=O)O)CC[C@]3(C)[C@H](CC[C@@H]4[C@@]5(C)CC[C@H](OC(=O)CC(C)(C)C(=O)O)C(C)(C)[C@@H]5CC[C@]43C)[C@@H]12` [bevirimat] has a percent viability of 73.4%.
Molecule `CO[C@H]1C[C@@H]2CC[C@@H](C)[C@@](O)(O2)C(=O)C(=O)N2CCCC[C@H]2C(=O)O[C@H]([C@H](C)C[C@@H]2CC[C@@H](O)[C@H](OC)C2)CC(=O)[C@H](C)/C=C(\C)[C@@H](O)[C@@H](OC)C(=O)[C@H](C)C[C@H](C)/C=C/C=C/C=C/1C` [Sirolimus] has a percent viability of 118%.
With `c1ccc(CC2=NCCN2)cc1` [tolazoline] the percent viability was 94.4%.
`O=C(Nc1ccc(C(=O)O)c(O)c1)c1ccccc1` [calcium benzamidosalicylate] was tested, and the percent viability was 90.2%.
In the case of `O=c1[nH]c(=O)n(C2CCCO2)cc1F` (configuration not stated) [tegafur], the percent viability is reported as 197%.
In the case of `Cc1c(-c2cnccn2)ssc1=S` [oltipraz], the percent viability is reported as 129% and 220%.
Work on `CCCCCCCCCCCCCCCCCC(=O)OC[C@H](COP(=O)(O)OC[C@H](N)C(=O)O)OC(=O)CCCCCCCCCCCCCCCCC` [Phosphatidylserine] yielded a percent viability of 253%.
For `CCCCC1C(=O)N(c2ccccc2)N(c2ccccc2)C1=O` [phenylbutazone], the percent viability was 238% and 272%.
`COc1nc(N)nc2c1ncn2[C@@H]1O[C@H](CO)[C@@H](O)[C@@H]1O` [Arranon] was tested, and the percent viability was 93.6%.
